Data: PubChem BioAssay AID504467 (National Center for Advancing Translational Sciences (NCATS), 2011)
About 7,700 (2.3%) of roughly 330,000 compounds were called active. The inconclusive results got no clear call from the source; some entries with a clear call stand among them for comparison. The call rests on the fitted dose curve; in most records, active means well fitted inhibition curve with a large enough effect; inconclusive means small, poorly fitted or top-dose-only effect, or effect the other way; inactive means flat fitted curve, though single readings scatter. A potency beside an inconclusive call is a rough fit, not a confirmed value.

Experiment: qHTS screen for small molecules that inhibit ELG1-dependent DNA repair in human embryonic kidney (HEK293T) cells expressing luciferase-tagged ELG1; further: nearly all actives have a fitted effect of over 55% in size
Conditions: HEK293T ELG1-luciferase reporter, luminescence, 16 h, DNA damage induced by 5-fluorouridine; activity change, negative = inhibition: at 46.1 µM (top of the series)
In short: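 In this reporter screen, reduction of luminescence relative to DMSO vehicle indicated activity. Compounds and 5-fluorouridine were added together to 2,000 cells per well, incubated for 16 hr at 37 °C, then developed with ONE-Glo.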
On the % scale 0 is the no-effect control and ±100 the full control effect; potency means the concentration at half of the fitted maximal effect.

Row | SMILES | Potency | activity change, negative = inhibition
1 | Cc1cc(NC(=O)C(C)C)ncc1NC(=O)c1ccco1 | inconclusive: 23.1 µM [activator, single point] | –
2 | CC(=O)c1c(C)oc2ccc(N(C(=O)c3ccncc3)S(=O)(=O)c3ccccc3)cc12 | inconclusive: 29.1 µM [inhibitor, single point] | –
3 | Cc1cnccc1CN(C)C(=O)C1CCC(=O)N(Cc2ccccc2F)C1 (stereo not given) | inconclusive: 20.6 µM [activator, partial curve, poor fit] | –
4 | O=C(Nc1ccccc1C(=O)Nc1ccccc1C(=O)NCc1ccco1)c1ccco1 | inconclusive: 20.6 µM [inhibitor, partial curve, poor fit] | –
5 | CCOc1cc(/C=C2\SC(=N)N(c3nccs3)C2=O)ccc1OCCN1CCOCC1 | inconclusive: 29.1 µM [activator, single point] | –
6 | O=C(Nc1ccc(S(=O)(=O)NC2=NCCCCC2)cc1)c1ccc([N+](=O)[O-])s1 | inconclusive: 4.11 µM [inhibitor, single point] | –
7 | C=CCNC(=O)/C(C#N)=C\c1cc(Cl)c(O)c(OCC)c1 | – | inactive: 10.2%
8 | Cc1cccc(N2CCN(C(=O)CN(C)S(=O)(=O)c3ccc4c(c3)CCC(=O)N4)CC2)c1C | inconclusive: 23.1 µM [inhibitor, single point] | –
9 | Cc1cccc(C)c1NC(=S)N=Nc1c(O)n(C)c2ccc(S(=O)(=O)N3CCOCC3)cc12 | inconclusive: 32.6 µM [activator, single point] | –
10 | Cc1ccc(NC2=CC(=O)CC(c3ccc(Cl)cc3)C2)cc1 (stereo not given) | – | inactive: 5.16%
11 | C/C(=N\Nc1ccc(F)cc1F)c1ccc(N2CCOCC2)cc1 | inconclusive: 20.6 µM [activator, single point] | –
12 | O=S(=O)(Nc1nc2ccccc2nc1Nc1ccc2c(c1)OCO2)c1ccccc1 | inconclusive: 8.2 µM [inhibitor, partial curve, poor fit] | –
13 | COc1ccc(NC(=O)CN(c2ccccc2OC)S(=O)(=O)c2cccs2)cc1Cl | inconclusive: 20.6 µM [inhibitor, single point] | –
14 | Cc1[nH]c(C)c(S(=O)(=O)N2CCc3ccccc32)c1C(=O)N1CCCCC1 | inconclusive: 16.4 µM [activator, partial curve, poor fit] | –
15 | CCOc1c(Cl)cc(C(=O)Nc2ccccc2C(=O)O)cc1Cl | inconclusive: 23.1 µM [activator, partial curve] | –
16 | CC(C)(C)C(=O)N1CCN(c2nc3ccc(Br)cc3s2)CC1 | inconclusive: 10.3 µM [activator, partial curve] | –
17 | Cc1ccc2cc3c(NC(=O)CC(C)C)nn(C)c3nc2c1 | inconclusive: 20.6 µM [inhibitor, single point] | –
18 | Clc1ccc(N/N=C/c2ccncc2)cc1Cl | inconclusive: 16.4 µM [activator, partial curve] | –
19 | O=C(Nc1sc(-c2ccccc2)cc1C(=O)O)c1ccccc1 | inconclusive: 13 µM [activator, partial curve] | –
20 | CCSc1nnc(-c2cccnc2)n1Cc1ccco1 | – | inactive: 3.09%

Row | SMILES | Potency | activity change, negative = inhibition
21 | C[C@H](CO)N1C[C@H](C)[C@@H](CN(C)S(C)(=O)=O)Oc2ccc(NC(=O)Nc3ccccc3)cc2C1=O | – | inactive: 23.6%
22 | O=C(c1ccc(-c2ccc([N+](=O)[O-])cc2Cl)o1)N1CCOCC1 | inconclusive: 11.6 µM [activator, partial curve] | –
23 | Cc1ccc(/C=N/NC(=O)c2ccc3c(c2)OCCO3)s1 | inconclusive: 7.3 µM [activator, partial curve] | –
24 | O=C(O)CCC(=O)Nc1sc2c(c1C(=O)Nc1cccc3ccccc13)CCCCC2 | – | inactive: 4.79%
25 | O=C(NCCCN1CCCC1=O)Nc1ccc(Br)cc1Cl | inconclusive: 18.3 µM [activator, partial curve, poor fit] | –
26 | Cc1c(NC(=S)SCc2ccccc2)c(=O)n(-c2ccccc2)n1C | – | inactive: 29.3%
27 | O=C(Nc1nnc(SCc2ccccc2F)s1)c1ccco1 | inconclusive: 20.6 µM [activator, single point] | –
28 | COc1cccc(C(=O)NC2(C(F)(F)F)N=C3SCCN3C2=O)c1 (stereo not given) | inconclusive: 0.0065 µM [activator, full curve, poor fit] | –
29 | COc1ccc(N2CCN(C(=O)c3ccc(CS(=O)(=O)c4ccc(Br)cc4)o3)CC2)cc1 | inconclusive: 23.1 µM [activator, partial curve] | –
30 | CCCn1c(N2CCN(CC(=O)Nc3ccc4c(c3)OCCO4)CC2)nc2ccccc21 | inconclusive: 29.1 µM [inhibitor, single point] | –
31 | N#C/C(=C\c1cc([N+](=O)[O-])c(N2CCCCC2)cc1N1CCCCC1)c1nn(-c2ccccc2)c(N)c1C#N | – | inactive: -2.34%
32 | COc1ccc(CNC(=O)c2ccc3c(c2)N(C)C(=O)CS3=O)cc1 (stereo not given) | – | inactive: -5.01%
33 | CCC(=O)N(Cc1cc2cc(OC)ccc2[nH]c1=O)c1ccc(C)cc1 | – | inactive: -20.4%
34 | CNC(=O)/C(C#N)=C/c1ccc(-c2ccc(OC)cc2[N+](=O)[O-])o1 | inconclusive: 8.2 µM [activator, partial curve, poor fit] | –
35 | COc1cccc(NC(=O)CN(C)C(=O)c2cc(-c3ccccc3)nc3ccccc23)c1 | inconclusive: 23.1 µM [inhibitor, partial curve] | –
36 | Cc1cc(C(=O)OCC(=O)N2CCc3ccccc32)ccc1[N+](=O)[O-] | inconclusive: 2.06 µM [activator, partial curve] | –
37 | Cc1ccc(OCCn2cc(/C=C(\C#N)C(=O)NCC3CCCO3)c3ccccc32)cc1 (stereo not given) | inconclusive: 29.1 µM [inhibitor, single point] | –
38 | COc1ccc(NC(=O)CSc2nc(=O)n(CCN(C)C)c3c2CCCC3)cc1 | inconclusive: 23.1 µM [activator, partial curve, poor fit] | –
39 | CC(=O)C1=C(C)NC(SCC(=O)c2cc(Cl)ccc2Cl)=C(C#N)C1c1ccco1 (stereo not given) | inconclusive: 25.1 µM [inhibitor, single point] | –
40 | CC(=O)c1sc(NC(=O)CCNC(=O)c2ccco2)nc1-c1ccccc1 | inconclusive: 29.1 µM [inhibitor, single point] | –

Another view of some results above.
Row	SMILES	Potency	activity change, negative = inhibition
30	CCCn1c(N2CCN(CC(=O)Nc3ccc4c(c3)OCCO4)CC2)nc2ccccc21	inconclusive: 29.1 µM [inhibitor, single point]	–
31	N#C/C(=C\c1cc([N+](=O)[O-])c(N2CCCCC2)cc1N1CCCCC1)c1nn(-c2ccccc2)c(N)c1C#N	–	inactive: -2.34%
